This continues a long series; more values of the same kind are listed elsewhere.
Test system: CVD (CHD or stroke)
Assay: WOSCOPS: SNP by pravastatin treatment interaction, logistic regression (synergy index), CVD endpoint
Format: in vivo, human
Description: CARE was a secondary prevention trial and WOSCOPS was a primary prevention trial.
The CHD endpoint was defined in the analyses herein of CARE as a composite endpoint of fatal CHD, definite non-fatal MI, or revascularization, and was defined in the analyses herein of WOSCOPS as a composite endpoint of death from CHD, nonfatal MI, or revascularization. In both the CARE and WOSCOPS analyses herein, the CVD endpoint was defined as a composite endpoint of CHD or stroke. […] Revascularization, which can include percutaneous transluminal coronary angioplasty (PTCA), stent placement, and coronary artery bypass graft (CABG), are medical interventions that indicate the presence of CHD.
Cohort and case-only study designs were used to identify SNPs associated with response to statin treatment.
For each SNP, a logistic regression model having treatment status as the dependent variable and SNP as the independent predictor variable was performed, with terms for age, sex and race included in the model as covariates. The anti-log of the regression coefficient corresponding to the SNP is an estimate of the synergy index (SI) (Davis et al., “Imputing gene-treatment interactions when the genotype distribution is unknown using case-only and putative placebo analyses-a new method for the Genetics of Hypertension Associated Treatment (GenHAT) study”, Statistics in Medicine 23: (2004), pages 2413-2427). The SI is a ratio of odds ratios: for example in the CARE and WOSCOPS studies, the SI represents the factor by which the odds-ratio of statin treatment, compared with placebo, among major homozygous individuals is multiplied by in order to obtain the odds-ratio of treatment vs. placebo among heterozygous individuals; and multiplied by a second time to obtain the odds-ratio of treatment vs. placebo in minor homozygous individuals. […] In a randomized clinical trial, genotype and treatment are independent by design.

For `CC[C@H](C)C(=O)O[C@H]1C[C@H](O)C=C2C=C[C@H](C)[C@H](CC[C@@H](O)C[C@@H](O)CC(=O)O)[C@H]21` [Pravastatin, pravastatin], the OR (rs9309988, Imputed, allele G, DOM model, WOSCOPS) was 2.42, the OR (rs9309989, Genotyped, allele C, DOM model, WOSCOPS) was 2.42 and the OR (rs9310221, Imputed, allele A, DOM model, WOSCOPS) was 1.531. For the same molecule, the OR (rs9327555, Imputed, allele T, DOM model, WOSCOPS) was 0.6021, the OR (rs9454967, Imputed, allele G, ADD model, WOSCOPS) was 2.387 and the OR (rs9454967, Imputed, allele G, DOM model, WOSCOPS) was 2.904. The OR (rs9471295, Imputed, allele T, DOM model, WOSCOPS) was 1.488, the OR (rs9477007, Imputed, allele A, ADD model, WOSCOPS) was 1.357 and the OR (rs9487279, Imputed, allele T, DOM model, WOSCOPS) was 0.5667. The OR (rs9555973, Imputed, allele G, ADD model, WOSCOPS) was 0.5702, the OR (rs9555973, Imputed, allele G, DOM model, WOSCOPS) was 0.5463 and the OR (rs9557510, Imputed, allele G, ADD model, WOSCOPS) was 1.582. It also gave an OR (rs9557510, Imputed, allele G, DOM model, WOSCOPS) of 1.775, an OR (rs9560584, Imputed, allele T, DOM model, WOSCOPS) of 0.5572 and an OR (rs9588770, Imputed, allele T, DOM model, WOSCOPS) of 0.497. The OR (rs9588848, Imputed, allele C, ADD model, WOSCOPS) was 0.5758, the OR (rs9588848, Imputed, allele C, DOM model, WOSCOPS) was 0.554 and the OR (rs9812206, Imputed, allele G, ADD model, WOSCOPS) was 0.3883. It also gave an OR (rs9812206, Imputed, allele G, DOM model, WOSCOPS) of 0.3876, an OR (rs9813552, Imputed, allele G, ADD model, WOSCOPS) of 0.3826 and an OR (rs9813552, Imputed, allele G, DOM model, WOSCOPS) of 0.3816. For the same molecule, the OR (rs9815037, Imputed, allele T, ADD model, WOSCOPS) was 0.3819, the OR (rs9815037, Imputed, allele T, DOM model, WOSCOPS) was 0.3809 and the OR (rs9825349, Imputed, allele A, ADD model, WOSCOPS) was 0.3819. The OR (rs9825349, Imputed, allele A, DOM model, WOSCOPS) was 0.3809, the OR (rs9834217, Imputed, allele T, ADD model, WOSCOPS) was 0.3819 and the OR (rs9834217, Imputed, allele T, DOM model, WOSCOPS) was 0.3809. The OR (rs9840460, Imputed, allele T, ADD model, WOSCOPS) was 0.3819, the OR (rs9840460, Imputed, allele T, DOM model, WOSCOPS) was 0.3809 and the OR (rs9840756, Imputed, allele A, ADD model, WOSCOPS) was 0.3808. For the same molecule, the OR (rs9840756, Imputed, allele A, DOM model, WOSCOPS) was 0.3798, the OR (rs9844801, Imputed, allele C, DOM model, WOSCOPS) was 2.42 and the OR (rs9869187, Imputed, allele C, ADD model, WOSCOPS) was 0.4258. For the same molecule, the OR (rs9869187, Imputed, allele C, DOM model, WOSCOPS) was 0.4271, the OR (rs9872327, Imputed, allele T, DOM model, WOSCOPS) was 2.42 and the OR (rs9881685, Imputed, allele A, ADD model, WOSCOPS) was 0.377. For the same molecule, the OR (rs9881685, Imputed, allele A, DOM model, WOSCOPS) was 0.3761, the OR (rs9909499, Imputed, allele C, DOM model, WOSCOPS) was 1.559 and the OR (rs9911847, Imputed, allele G, DOM model, WOSCOPS) was 0.6877. For the same molecule, the OR (rs9946886, Imputed, allele G, REC model, WOSCOPS) was 0.3262, the OR (rs9958823, Imputed, allele A, ADD model, WOSCOPS) was 1.444 and the OR (rs9965248, Imputed, allele T, ADD model, WOSCOPS) was 1.399. For the same molecule, the OR (rs10941126 allele G, DOM model, Imputed, WOSCOPS) was 0.309, the OR (rs10947980 allele G, ADD model, Imputed, WOSCOPS) was 0.6089 and the OR (rs11059376 allele T, ADD model, Imputed, WOSCOPS) was 1.592. For the same molecule, the OR (rs11072995 allele T, REC model, Imputed, WOSCOPS) was 2.796, the OR (rs11081202 allele G, REC model, Genotyped, WOSCOPS) was 2.426 and the OR (rs11124962 allele A, DOM model, Imputed, WOSCOPS) was 1.812. The OR (rs11178531 allele A, ADD model, Imputed, WOSCOPS) was 0.7781, the OR (rs11178531 allele A, DOM model, Imputed, WOSCOPS) was 0.6138 and the OR (rs11178583 allele A, ADD model, Imputed, WOSCOPS) was 0.6776. The OR (rs11178583 allele A, DOM model, Imputed, WOSCOPS) was 0.6103, the OR (rs11178589 allele T, ADD model, Imputed, WOSCOPS) was 0.6759 and the OR (rs11178589 allele T, DOM model, Imputed, WOSCOPS) was 0.6066. For the same molecule, the OR (rs11178594 allele C, ADD model, Imputed, WOSCOPS) was 0.6841, the OR (rs11178594 allele C, DOM model, Imputed, WOSCOPS) was 0.62 and the OR (rs11178602 allele T, ADD model, Imputed, WOSCOPS) was 0.6841. The OR (rs11178602 allele T, DOM model, Imputed, WOSCOPS) was 0.62, the OR (rs11178648 allele T, ADD model, Imputed, WOSCOPS) was 0.6858 and the OR (rs11178648 allele T, DOM model, Imputed, WOSCOPS) was 0.6021. The OR (rs11198877 allele T, DOM model, Imputed, WOSCOPS) was 1.444, the OR (rs11198942 allele T, DOM model, Imputed, WOSCOPS) was 1.458 and the OR (rs11221075 allele A, ADD model, Imputed, WOSCOPS) was 0.7175. For the same molecule, the OR (rs11242020 allele T, DOM model, Imputed, WOSCOPS) was 0.7107, the OR (rs11242021 allele T, DOM model, Imputed, WOSCOPS) was 0.6887 and the OR (rs11242022 allele T, DOM model, Imputed, WOSCOPS) was 0.6944. The OR (rs11242023 allele T, DOM model, Imputed, WOSCOPS) was 0.6944, the OR (rs11576627 allele T, ADD model, Imputed, WOSCOPS) was 1.4 and the OR (rs11576627 allele T, DOM model, Imputed, WOSCOPS) was 1.426. It also gave an OR (rs11630050 allele G, REC model, Imputed, WOSCOPS) of 2.977, an OR (rs11633024 allele C, REC model, Imputed, WOSCOPS) of 2.977 and an OR (rs11636298 allele G, REC model, Imputed, WOSCOPS) of 3.183. It also gave an OR (rs11637363 allele C, REC model, Imputed, WOSCOPS) of 2.964, an OR (rs11637813 allele A, REC model, Imputed, WOSCOPS) of 2.977 and an OR (rs11638043 allele C, REC model, Imputed, WOSCOPS) of 2.964. For the same molecule, the OR (rs11638115 allele A, REC model, Imputed, WOSCOPS) was 2.796, the OR (rs11682946 allele A, ADD model, Imputed, WOSCOPS) was 5.356 and the OR (rs11682946 allele A, DOM model, Imputed, WOSCOPS) was 5.538. The OR (rs11717157 allele T, ADD model, Imputed, WOSCOPS) was 1.45, the OR (rs11724055 allele A, DOM model, Imputed, WOSCOPS) was 0.7804 and the OR (rs11743355 allele C, ADD model, Imputed, WOSCOPS) was 0.309. For the same molecule, the OR (rs11743355 allele C, DOM model, Imputed, WOSCOPS) was 0.309, the OR (rs11746806 allele T, ADD model, Imputed, WOSCOPS) was 0.309 and the OR (rs11746806 allele T, DOM model, Imputed, WOSCOPS) was 0.309. It also gave an OR (rs11746959 allele T, ADD model, Imputed, WOSCOPS) of 0.309, an OR (rs11746959 allele T, DOM model, Imputed, WOSCOPS) of 0.309 and an OR (rs11749272 allele T, DOM model, Imputed, WOSCOPS) of 0.7035. It also gave an OR (rs11853619 allele C, REC model, Imputed, WOSCOPS) of 3.183, an OR (rs11856780 allele A, REC model, Imputed, WOSCOPS) of 3.183 and an OR (rs11901899 allele A, DOM model, Imputed, WOSCOPS) of 1.822. It also gave an OR (rs11903290 allele C, REC model, Imputed, WOSCOPS) of 1.901, an OR (rs11909480 allele G, ADD model, Imputed, WOSCOPS) of 0.5964 and an OR (rs11909480 allele G, DOM model, Imputed, WOSCOPS) of 0.61. It also gave an OR (rs11910289 allele T, ADD model, Imputed, WOSCOPS) of 2.254, an OR (rs11910289 allele T, DOM model, Imputed, WOSCOPS) of 2.226 and an OR (rs11926319 allele G, DOM model, Imputed, WOSCOPS) of 0.5229. It also gave an OR (rs11933744 allele T, REC model, Imputed, WOSCOPS) of 3.01, an OR (rs11934919 allele C, REC model, Imputed, WOSCOPS) of 3.01 and an OR (rs11934957 allele C, REC model, Imputed, WOSCOPS) of 3.01. For the same molecule, the OR (rs16938626 allele G, DOM model, Imputed) was 0.6482, the OR (rs16964300 allele G, ADD model, Imputed) was 0.6489 and the OR (rs16964300 allele G, DOM model, Imputed) was 0.5081. It also gave an OR (rs16986282 allele G, DOM model, Imputed) of 0.6518, an OR (rs17007620 allele G, ADD model, Imputed) of 1.684 and an OR (rs17007620 allele G, DOM model, Imputed) of 1.898. It also gave an OR (rs17014326 allele G, DOM model, Imputed) of 0.6773, an OR (rs17047957 allele C, DOM model, Imputed) of 1.575 and an OR (rs17073341 allele A, ADD model, Imputed) of 1.335. For the same molecule, the OR (rs17073341 allele A, DOM model, Imputed) was 1.335, the OR (rs17138702 allele G, ADD model, Imputed) was 0.7112 and the OR (rs17189710 allele T, ADD model, Imputed) was 1.407. For the same molecule, the OR (rs17189710 allele T, REC model, Imputed) was 1.414, the OR (rs17310176 allele T, ADD model, Imputed) was 0.8153 and the OR (rs17310176 allele T, DOM model, Imputed) was 0.8122. It also gave an OR (rs17358860 allele A, DOM model, Imputed) of 0.7804, an OR (rs17370541 allele T, REC model, Imputed) of 1.782 and an OR (rs17530747 allele T, DOM model, Imputed) of 0.7249. The OR (rs17649114 allele C, DOM model, Imputed) was 1.27 and the OR (rs17766172 allele A, REC model, Imputed) was 0.6013.
